Measured values as given in PMC2816667.
For at least one entry, the source does not settle the construct or the ends of the probe. Negatives hold for the conditions tested.

Sequences of proteins named here, by UniProt entry; tags and fusion partners are left off.
UniProt P08515, whole entry: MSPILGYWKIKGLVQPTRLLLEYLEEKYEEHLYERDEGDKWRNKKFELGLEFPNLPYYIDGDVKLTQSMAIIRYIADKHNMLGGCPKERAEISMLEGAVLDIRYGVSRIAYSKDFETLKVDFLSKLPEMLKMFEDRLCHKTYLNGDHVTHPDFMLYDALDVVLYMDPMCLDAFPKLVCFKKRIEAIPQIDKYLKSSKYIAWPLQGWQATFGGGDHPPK

Target: GST (UniProt P08515)
Experiment: EMSA
Details: GST alone 'hardly bound at all'; 10 mM Tris-HCl pH 8.0, 40 mM KCl, 6% glycerol, 1 mM DTT, 0.05% NP-40, 10 ng/ul poly(dI-dC), 30 min at 4 C; 4% PAGE in 0.5x TBE at 4 C; protein 0.15-1.35 ug; recombinant protein; label: 32P 5' end label

Q: Does “GGCACTTCACTAGCATAACAATGAGGGCTC (double strand) [Oct-4 probe]” bind?
A: no binding
